Laboratory results published in US20220064238A1, “Methods And Compositions For Modifying Transcription Factor Activity by Targeting The Human Mediator Complex Using Cell Penetrating Memetic Peptides And Methods of Treating Cancer Using The Same” (The Regents of the University of Colorado, a body corporate, priority 2020, published 2022).
At least one peptide structure holds a part that was inferred or is arguable (an end, a ring closure or a residue). For some of these results: At least one structure is not confirmed: it was looked up by name or label, or the drawing left a doubt. Bridge positions count the residues as written; N and C are the ends. Square brackets hold non-standard residues; d marks the D form. Peptide text beside a SMILES is read from it. PEG6 = NCCOCCOCCOCCOCCOCCOCCC(=O)O; R8 = C=CCCCCCC[C@@](C)(N)C(=O)O; S5 = C=CCCC[C@](C)(N)C(=O)O

The chains behind the UniProt entries cited, without tags or fusion partners. Where a name states a change or a piece, a line headed by the entry shows the natural chain unless it says otherwise.
UniProt Q9NVC6: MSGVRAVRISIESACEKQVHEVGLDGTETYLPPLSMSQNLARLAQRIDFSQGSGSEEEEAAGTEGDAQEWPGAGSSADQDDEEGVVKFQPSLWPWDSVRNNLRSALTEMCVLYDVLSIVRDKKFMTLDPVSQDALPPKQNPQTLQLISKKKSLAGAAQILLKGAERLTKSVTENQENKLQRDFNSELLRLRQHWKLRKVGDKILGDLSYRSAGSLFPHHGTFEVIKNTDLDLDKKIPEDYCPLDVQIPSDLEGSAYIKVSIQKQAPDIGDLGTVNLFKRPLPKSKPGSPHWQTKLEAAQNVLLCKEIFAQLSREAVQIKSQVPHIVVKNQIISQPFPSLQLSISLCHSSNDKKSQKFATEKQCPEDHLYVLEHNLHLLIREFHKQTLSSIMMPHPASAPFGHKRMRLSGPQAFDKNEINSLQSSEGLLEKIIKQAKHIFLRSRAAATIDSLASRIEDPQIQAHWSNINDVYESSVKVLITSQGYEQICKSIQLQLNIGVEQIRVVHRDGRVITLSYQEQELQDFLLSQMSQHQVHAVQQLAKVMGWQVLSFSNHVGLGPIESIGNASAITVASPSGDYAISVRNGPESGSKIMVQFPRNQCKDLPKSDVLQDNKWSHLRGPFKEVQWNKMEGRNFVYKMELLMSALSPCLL

Legend:
Gal4-p53AD / Mediator = molecular target: T1, Gal4-p53AD / Mediator (Homo sapiens, UniProt Q9NVC6); assay: In vitro transcription on chromatin templates activated by Gal4-p53AD; assay type: biochemical
T1 construct: made in house

basal transcription = assay: In vitro transcription on naked DNA templates, basal (no activator); assay type: biochemical, human
From the text: To screen peptides for the ability to selectively block p53-dependent transcription, we required an assay that enabled p53-dependent activation but that could also support basal (i.e. activator-independent) transcription. The present inventors had previously established an in vitro transcription assay (using highly purified human factors (FIG. 1A). A key feature of this assay was that both activated and basal transcription could be reconstituted on naked DNA templates (i.e. DNA templates not assembled into chromatin). To adapt this assay for purposes of measuring basal vs. p53-activated transcription, we generated templates with Gal4 DNA binding sites upstream of the adenovirus major late promoter sequence (FIG. 5A, B). Upon titration of a Gal4 DNA Binding Domain (DBD)-p53 Activation Domain (AD; residues 1-70) fusion protein into this system, we observed pol II-dependent transcription that was dependent on p53AD and Mediator (FIG. 5C). Reactions containing Gal4-p53AD generally produced about two- to four-fold more transcripts compared to reactions with no activator (FIG. 5C). Because experiments without Gal4-p53AD produced a low level of “basal” transcription that could be quantitated, this system allowed assessment of both p53-activated and basal transcription.
Radiolabeling of the reverse transcription primer: A reverse transcriptase (RT) primer was synthesized to complement the RNA transcript 85 bases downstream of the transcription start site. The RT primer was radiolabeled in polynucleotide kinase (PNK) buffer (70 mM Tris-HCl pH 7.6, 10 mM MgCl2, 5 mM DTT) with the addition of about 150 μCi [γ-32P]ATP, 6 U of T4 PNK and 48 ng of the RT primer in a final volume of 10 μL. The reactions were then incubated at 37° C. for 45 minutes. A glycogen mixture (10 mM Tris pH 7.5, 34 mM EDTA, 1.33 mg/mL glycogen) was then added to bring the volume to 25 μL, and the reaction was passed through a G-25 column to remove excess free [γ-32P]ATP. An additional 25 μL of TE buffer (10 mM Tris pH 7.5, 1 mM EDTA) was added. The radiolabeled primer was then stored at 4° C. until needed (up to 1 week).
Purification of PIC factors for in vitro transcription: TFIIA, TFIIB, TFIID, TFIIE, TFIIF, TFIIH, Mediator, and pol II were purified as described (Knuesel et al., 2009).
In vitro transcription: Chromatinized templates and in vitro transcription assays were generated and completed as described (Knuesel et al., 2009). Briefly, each activator (GAL4-p53AD or GAL4-VP16AD) was titrated to yield maximum transcription. […]

[1] = molecular target: T2, p53-activated transcription (Gal4-p53AD, Mediator) (Homo sapiens, UniProt Q9NVC6); assay: In vitro transcription on naked DNA templates, p53-activated (+Gal4-p53AD); assay type: biochemical; settings: titration 0.9-9 μM, read-out: IC50, inhibition of p53-activated transcription
T2 construct: made in house
From the text: To screen peptides for the ability to selectively block p53-dependent transcription, we required an assay that enabled p53-dependent activation but that could also support basal (i.e. activator-independent) transcription. The present inventors had previously established an in vitro transcription assay (using highly purified human factors (FIG. 1A). A key feature of this assay was that both activated and basal transcription could be reconstituted on naked DNA templates (i.e. DNA templates not assembled into chromatin). To adapt this assay for purposes of measuring basal vs. p53-activated transcription, we generated templates with Gal4 DNA binding sites upstream of the adenovirus major late promoter sequence (FIG. 5A, B). Upon titration of a Gal4 DNA Binding Domain (DBD)-p53 Activation Domain (AD; residues 1-70) fusion protein into this system, we observed pol II-dependent transcription that was dependent on p53AD and Mediator (FIG. 5C). Reactions containing Gal4-p53AD generally produced about two- to four-fold more transcripts compared to reactions with no activator (FIG. 5C). Because experiments without Gal4-p53AD produced a low level of “basal” transcription that could be quantitated, this system allowed assessment of both p53-activated and basal transcription. […]

| Structure (SMILES) | IC50 (Gal4-p53AD / Mediator) | effect on basal transcription, initial screen (basal transcription; 5 μM peptide, no GAL4-p53, naked DNA templates) | effect on basal transcription at 9 μM (basal transcription; 9 μM titration point) | concentration at which basal transcription was activated (basal transcription; naked DNA templates, titration 0.9-9 μM) | effect on basal transcription, follow-up experiments (basal transcription; no GAL4-p53, naked DNA templates) | IC50 [1] |
| --- | --- | --- | --- | --- | --- | --- |
| CC[C@H](C)[C@H](NC(=O)[C@H](CC(=O)O)NC(=O)[C@H](CC(=O)O)NC(=O)[C@@H]1CCCN1C(=O)[C@H](CO)NC(=O)[C@H](CC(C)C)NC(=O)CCOCCOCCOCCOCCOCCOCCNC(=O)[C@H](CCCNC(=N)N)NC(=O)[C@H](CCCNC(=N)N)NC(=O)[C@]1(C)CCCC=CCCCCCC[C@@](C)(NC(=O)[C@H](Cc2ccccc2)NC(=O)[C@H](CCCNC(=N)N)NC(=O)[C@H](CCC(=O)O)NC(=O)[C@H](CCC(N)=O)NC(=O)[C@H](CO)NC(=O)[C@H](CCCNC(=N)N)NC(C)=O)C(=O)N[C@@H](CC(=O)O)C(=O)N[C@@H](CC(C)C)C(=O)N[C@@H](Cc2c[nH]c3ccccc23)C(=O)N[C@@H](CCCCN)C(=O)N[C@@H](CCCNC(=N)N)C(=O)N[C@@H](CC(C)C)C(=O)N1)C(=O)N[C@@H](CCC(=O)O)C(=O)N[C@@H](CCC(N)=O)C(=O)N[C@@H](CCC(N)=O)C(=O)N[C@@H](CO)C(=O)N[C@H](C(=O)N[C@@H](CCC(=O)O)C(=O)N[C@@H](CC(=O)O)C(N)=O)[C@@H](C)O (Ac-RSQERF[R8]DLWKRL[S5]RR[PEG6]LSPDDIEQQSTED-NH2; staple 7-14; N-terminus assumed) | 713 nM |  |  |  |  |  |
| CC(=O)N[C@@H](CCCNC(=N)N)C(=O)N[C@@H](CO)C(=O)N[C@@H](CCC(N)=O)C(=O)N[C@@H](CCC(=O)O)C(=O)N[C@@H](CCCNC(=N)N)C(=O)N[C@@H](Cc1ccccc1)C(=O)N[C@]1(C)CCCCCCC=CCCC[C@@](C)(C(=O)N[C@@H](CCCNC(=N)N)C(=O)N[C@@H](CCCNC(=N)N)C(N)=O)NC(=O)[C@H](CC(C)C)NC(=O)[C@H](CCCNC(=N)N)NC(=O)[C@H](CCCCN)NC(=O)[C@H](Cc2c[nH]c3ccccc23)NC(=O)[C@H](CC(C)C)NC(=O)[C@H](CC(=O)O)NC1=O [BP1.4] (Ac-RSQERF[R8]DLWKRL[S5]RR-NH2; staple 7-14; C-terminus assumed) | 330 nM | did not affect basal transcription | inhibited | ≥ 4 µM | did not | 3200 ± 200 nM |
